No constants are given. Whether binding was seen depends on the method and setting. Binding seen in cells or lysates may run through a third protein. Binding can be weak; no strength is given.
Target: EhNPC1 (Entamoeba histolytica (endogenous in trophozoites)) (UniProt C4M8X7)
Experiment: co-IP; trophozoites in basal condition or after 5+60 min of erythrophagocytosis, lysed in 10 mM Tris-HCl, 50 mM NaCl with protease inhibitors by freeze-thawing; immunoprecipitation with α-EhNPC1 or α-EhNPC2 antibody (preimmune serum as control) and protein G-agarose; western blot of the …

Sequences of proteins named here, by UniProt entry; tags and fusion partners are left off. A change or cut given only in a name is not applied to a line headed by its entry.
UniProt C4M8X7: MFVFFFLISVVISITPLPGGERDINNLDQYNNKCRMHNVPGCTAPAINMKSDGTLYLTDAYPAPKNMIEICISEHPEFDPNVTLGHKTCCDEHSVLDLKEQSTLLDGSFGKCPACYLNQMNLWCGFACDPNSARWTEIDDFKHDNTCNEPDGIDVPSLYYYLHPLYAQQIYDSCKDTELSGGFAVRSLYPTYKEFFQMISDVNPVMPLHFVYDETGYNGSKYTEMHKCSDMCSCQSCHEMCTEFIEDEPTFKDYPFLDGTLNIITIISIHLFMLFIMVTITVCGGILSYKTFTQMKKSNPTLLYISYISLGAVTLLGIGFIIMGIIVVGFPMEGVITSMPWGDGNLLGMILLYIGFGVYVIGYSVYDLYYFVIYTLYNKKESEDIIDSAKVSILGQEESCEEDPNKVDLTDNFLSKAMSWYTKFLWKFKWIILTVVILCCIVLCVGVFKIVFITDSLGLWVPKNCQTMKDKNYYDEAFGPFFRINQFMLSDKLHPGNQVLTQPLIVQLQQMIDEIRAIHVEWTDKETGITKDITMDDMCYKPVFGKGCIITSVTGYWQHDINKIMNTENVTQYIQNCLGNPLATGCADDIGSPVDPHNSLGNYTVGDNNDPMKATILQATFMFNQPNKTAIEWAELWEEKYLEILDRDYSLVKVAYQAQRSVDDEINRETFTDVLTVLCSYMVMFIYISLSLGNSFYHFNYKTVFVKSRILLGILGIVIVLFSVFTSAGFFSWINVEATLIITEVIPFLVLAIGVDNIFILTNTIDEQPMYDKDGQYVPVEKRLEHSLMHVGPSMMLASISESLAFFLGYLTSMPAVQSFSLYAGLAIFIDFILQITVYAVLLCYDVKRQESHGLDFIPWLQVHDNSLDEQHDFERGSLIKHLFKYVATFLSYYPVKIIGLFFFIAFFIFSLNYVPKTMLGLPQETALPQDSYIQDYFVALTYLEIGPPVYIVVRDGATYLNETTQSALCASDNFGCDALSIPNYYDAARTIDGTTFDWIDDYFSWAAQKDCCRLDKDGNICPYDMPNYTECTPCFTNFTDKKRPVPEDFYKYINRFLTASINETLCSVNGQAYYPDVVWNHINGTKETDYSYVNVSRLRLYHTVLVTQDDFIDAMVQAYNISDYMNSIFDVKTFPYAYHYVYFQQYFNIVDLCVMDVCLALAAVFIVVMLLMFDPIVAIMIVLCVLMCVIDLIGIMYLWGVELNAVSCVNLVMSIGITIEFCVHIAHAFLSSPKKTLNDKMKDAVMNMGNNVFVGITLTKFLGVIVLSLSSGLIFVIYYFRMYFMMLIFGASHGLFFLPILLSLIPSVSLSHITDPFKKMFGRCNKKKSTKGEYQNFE
UniProt Q9BLE8: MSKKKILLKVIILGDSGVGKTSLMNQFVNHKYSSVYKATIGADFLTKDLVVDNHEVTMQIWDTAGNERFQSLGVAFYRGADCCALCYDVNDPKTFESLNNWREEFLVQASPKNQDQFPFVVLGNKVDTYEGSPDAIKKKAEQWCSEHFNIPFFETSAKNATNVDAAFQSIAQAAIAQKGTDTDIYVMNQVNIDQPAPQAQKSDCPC

binding: binds
Substance: EhRab7A (from UniProt Q9BLE8)
